Assay results from paper PMC5893545.
Tags and fusion partners may be left off the protein sequences shown.

Molecular target: T1, NIGT1.1(DBD) (Arabidopsis thaliana) (UniProt Q9FPE8)
T1 sequence (looked up, limits assumed): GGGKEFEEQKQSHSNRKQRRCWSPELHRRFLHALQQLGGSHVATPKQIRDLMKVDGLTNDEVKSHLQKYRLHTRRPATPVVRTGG
Experiment: EMSA
Conditions: 20 mM HEPES-KOH pH 7.6, 3 mM MgCl2, 30 mM KCl, 20 mM NaCl, 2 mM DTT, 0.5 mM EDTA, 10% glycerol, 0.5 ug poly[d(I-C)], 0.1x Complete; 25-50 ng protein, 2.5-5 ng probe; recombinant protein; protein details: Trx, His (pET32); label: biotin; probe letters rebuilt from the primers and the genome

“ACACAGGAAACAGCTATGACCATGTGTTATAAAATATTTCAAGTTTCTTTGCAAGTTTGAGATTTGATTCAAGTTTATTTGATCGATGTCTGAATATTAATCACACGATGGCTTATATAGGGTTCCTAGCCAGTGTTGACAATGAAAAAAGCATTCTTTGGAGATTCTCAACGGTTAACTATCGATTTAAATATTAATTTTCGAGGAATCCATTTTCGCCGCAAGCATCTTCCTAGTCTCTCGCTTATCACCAAAGGTTGCCGATATCCTTCCAAATGACCGCTCTACCCTTCCCTCATCTTGC (double strand) [NRT2.1 p5]”: binds.
